In patent US20240216343A1, “ENDOTHELIAL IK AND SK CHANNEL ACTIVATION TO TREAT PULMONARY HYPERTENSION” (UNIVERSITY OF VIRGINIA PATENT FOUNDATION, priority 2023, published 2024):
For at least one compound, name, drawing or mass did not settle the structure.

Legend:
[1] = system: fourth-order PAs; test: Pressure myography of mouse fourth-order PAs; conditions: TRAM-34 1 μmol/L and Apa 300 nmol/L applied together; not different between N and Su+CH mice
Source text: Mouse fourth-order PAs (˜50 μm) were cannulated on glass micropipettes in a pressure myography chamber (The Instrumentation and Model Facility; University of Vermont; Burlington; VT; USA) and pressurized to a physiological pressure of 15 mm Hg (24). Briefly, freshly dissected lungs were placed in ice cold HEPES buffer in a dissection plate. The left lung was stretched and pinned down, with ventral side facing up. First, pulmonary veins, and then the airway were cut open to gain access to the pulmonary arteries underneath. Once PAs were visible, they were gently separated from surrounding tissue (25). Arteries were superfused with bicarbonate-physiological salt solution (PSS; 119 mmol/L NaCl; 4.7 mmol/L KCl; 1.2 mmol/L KH2PO4; 1.2 mmol/L MgCl2 hexahydrate; 2.5 mmol/L CaCl2) dihydrate; 7 mmol/L dextrose; and 24 mmol/L NaHCO3) at 37° ° C. and bubbled with 20% O2/5% CO2 to maintain the pH at 7.4. […] Changes in arterial diameter were recorded at a 60-ms frame rate using a charge-coupled device camera and edge-detection software (IonOptix LLC; Westwood; MA; USA) (11, 26). […] Percent constriction was calculated by:
[formula] • where Diameterbefore is the diameter of the artery before treatment and Diameterafter is the diameter after treatment. Percent dilation was calculated by: […]

[2] = system: IK/SK channels in SMCs from PAs; test: Whole-cell patch-clamp in freshly isolated SMCs from small PAs; format: cell-based, mouse; conditions: TRAM-34 1 μmol/L and Apa 300 nmol/L added together after NS309 1 μmol/L; SMCs from control or Su+CH mice
Method: For SMC isolation (27), arterial segments were transferred to a 12×75 mm borosilicate glass culture tube containing 1 mL dissociation solution (145 mmol/L NaCl; 4 mmol/L KCl; 1 mmol/L MgCl2; 10 mmol/L HEPES; 0.05 mmol/L CaCl2), 10 mmol/L glucose; pH 7.3) and 0.5 mg/mL bovine serum albumin (BSA) and incubated for 10 minutes at room temperature (˜24° C.). The solution was then replaced with 1 mL dissociation solution containing 1 mg/mL papain (Sigma Aldrich) and 0.5 mg/mL dithiothreitol (Sigma Aldrich), and incubation was continued at 37° C. for 20 minutes. […]
Whole-cell currents were measured at room temperature using conventional whole-cell patch-clamp electrophysiology. […] The pipette solution for conventional patch clamp consisted of 10 mmol/L HEPES, 123.2 mmol/L KCl, 10 mmol/L NaCl, 5.5 mmol/L MgCl2, 0.2 mmol/L CaCl2) and 5 mmol/L HEDTA (adjusted to pH 7.2 with 16.8 mm KOH) and contained 3 μm free-Ca^2+ and 1 mmol/L free-Mg^2+, as calculated using the Max-Chelator program (Chris Patton; Stanford University; Stanford; CA; USA). […] Data were acquired using a Multiclamp 700B amplifier connected to a Digidata 1550B system and analyzed using Clampfit 11.1 software (Molecular Devices, San Jose, CA, USA).
NS309-induced ionic currents were measured in freshly isolated SMCs (FIG. 4A) from PAs in whole-cell patch-clamp experiments (FIGS. 4B and 4C).

CC(C)C[C@@H]1NC(=O)[C@H](C)NC(=O)[C@H]([C@@H](C)O)NC(=O)[C@H](CCC(=O)O)NC(=O)[C@@H]2CCCN2C(=O)[C@H](C)NC(=O)[C@H](CCCCN)NC(=O)[C@@H]2CSSC[C@@H](C(=O)N[C@@H](CCC(N)=O)C(=O)N[C@@H](CCC(N)=O)C(=O)N[C@@H](Cc3cnc[nH]3)C(N)=O)NC(=O)[C@H](CCCNC(=N)N)NC(=O)[C@H](CCCNC(=N)N)NC(=O)[C@H](C)NC(=O)[C@H](CSSC[C@H](N)C(=O)N[C@@H](CC(N)=O)C(=O)N2)NC1=O [Apa] was tested, and the “Constriction of small PAs” value [1] was about 10% and the “Effect on NS309-induced outward currents in SMCs” value [2] was “did not reduce”.
